Measurements as given in patent publication US20220056484A1, “SELECTION BY MEANS OF ARTIFICIAL TRANSACTIVATORS” (Ospedale San Raffaele S.R.L., priority 2018, published 2022).
At least one structure is not confirmed: it was looked up by name or label, or the drawing left a doubt.

Tested on: TetO7-SK GFP selector in IL2RG locus, CD34+ cells
Experiment: SMArT-D in CB-derived CD34+ cells, IL2RG locus, GFP selector
Assay type: cell-based, human

C[C@H]1c2cccc(O)c2C(=O)C2=C(O)[C@]3(O)C(=O)C(C(N)=O)=C(O)[C@@H](N(C)C)[C@@H]3[C@@H](O)[C@@H]21 [doxycycline]
selector overexpression in targeted cells after withdrawal at 12 hours post-editing (2 μM and 400 nM): did not allow efficient overexpression of the selector | selector overexpression after low dose and washout at 24 hours post-editing (low dose (400 nM)): potent selector overexpression in the vast majority of HDR-edited cells
